In paper PMC5432285:
Results are given in words; binding and its absence hold for the method and conditions named. Binding seen in cells or lysates may run through a third protein. Some entries that bind do so weakly or less than the wild type.

Amino acid sequences for entries named in this document (tags omitted).
UniProt O95931: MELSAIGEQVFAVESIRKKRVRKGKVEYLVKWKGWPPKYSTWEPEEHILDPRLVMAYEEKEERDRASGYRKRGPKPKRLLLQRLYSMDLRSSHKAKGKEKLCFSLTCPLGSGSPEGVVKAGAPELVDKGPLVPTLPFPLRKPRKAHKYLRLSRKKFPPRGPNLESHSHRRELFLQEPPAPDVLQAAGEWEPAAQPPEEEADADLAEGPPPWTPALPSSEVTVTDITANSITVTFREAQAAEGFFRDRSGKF
UniProt Q92769: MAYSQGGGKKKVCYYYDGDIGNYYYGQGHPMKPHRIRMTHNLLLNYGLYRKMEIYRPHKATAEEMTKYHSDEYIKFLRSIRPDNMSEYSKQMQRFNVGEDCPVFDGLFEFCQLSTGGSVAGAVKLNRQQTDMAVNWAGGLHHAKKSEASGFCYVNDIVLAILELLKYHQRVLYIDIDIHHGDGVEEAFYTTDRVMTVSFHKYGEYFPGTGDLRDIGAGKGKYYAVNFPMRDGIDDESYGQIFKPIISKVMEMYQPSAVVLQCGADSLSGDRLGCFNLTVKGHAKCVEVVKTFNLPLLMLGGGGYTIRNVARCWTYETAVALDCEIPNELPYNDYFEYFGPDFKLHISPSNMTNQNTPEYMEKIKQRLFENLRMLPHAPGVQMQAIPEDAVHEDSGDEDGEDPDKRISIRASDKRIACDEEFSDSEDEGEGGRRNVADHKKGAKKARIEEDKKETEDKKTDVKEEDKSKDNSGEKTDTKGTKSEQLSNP

Biological target: Chromobox homolog 7 (human (endogenous in U251, U87, LN229)) (UniProt O95931)
Assay: co-IP; lysates of U251, U87 and LN229 cells; IP with anti-CBX7 antibody (or nonspecific IgG) and blot with anti-HDAC2, and conversely IP with anti-HDAC2 and blot with anti-CBX7; overnight at 4°C, protein A/G plus-agarose

histone deacetylase 2 (from UniProt Q92769 1-488)
binding: binds
